Reference: patent US20050164339A1
Results are given in words; binding and its absence hold for the method and conditions named. In cells and extracts the contact can be indirect. Some binding calls cover weakened binding; strength is not graded here. Where a sequence is shown, tags or fusion partners need not be part of it.

Protein sequences, listed by entry. Tags and fused reporters are not part of them.
UniProt P33115: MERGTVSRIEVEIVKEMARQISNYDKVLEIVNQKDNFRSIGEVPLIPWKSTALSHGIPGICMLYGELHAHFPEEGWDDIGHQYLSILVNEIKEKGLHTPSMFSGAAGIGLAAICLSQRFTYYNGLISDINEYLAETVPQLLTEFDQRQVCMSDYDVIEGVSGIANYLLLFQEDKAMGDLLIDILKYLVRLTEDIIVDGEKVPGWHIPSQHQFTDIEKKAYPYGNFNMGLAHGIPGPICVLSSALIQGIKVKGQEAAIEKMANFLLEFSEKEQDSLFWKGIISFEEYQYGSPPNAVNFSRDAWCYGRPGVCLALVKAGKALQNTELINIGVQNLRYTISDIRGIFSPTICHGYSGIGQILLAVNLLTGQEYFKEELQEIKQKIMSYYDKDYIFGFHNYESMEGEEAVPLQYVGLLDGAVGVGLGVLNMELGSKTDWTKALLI

Molecular target: endogenous SpaC (Bacillus subtilis) (UniProt P33115)
Assay: co-immunoprecipitation: purified His6-SpaB added to extracts of subtilin producing cells, precipitated with anti-His-tag antibodies, Western blot with anti-SpaC antibodies

B1: His6-SpaB (enzyme)
chain: MKSLYTPTDYYMIRVPLVHQDLKNENSQDIDQLLHDLCNDSLFREQILVSSRTLYETIHTFLQAPDKLKGKKKRNFQQAILKYATRRATRTTPFGLFSSVGIGSFSDKNHLSFNQHSFYKKARVDLEWLYQLIRKLENEYTDRLSFTLNSACYIKGDRAYLLYSTDGKSEEVSVRATSVFYLINELCGESAAYQDIIRCLIDNYPNTPINKINQYVADLIDKEFLISNLRPPMTVSDQFQYLIDQAESRHIPNELIQACKDIQYQIDAYNRITIGEGEHQYLNLIETMNKLIKASSPLQVDAGLADSSIQLDNETSLAISELASMFTYMASPSANTLDHLEKYHNVFLERYGYEREVPLLEMLCSSTGIGAPATYTNPANEFFEETSFGEQFSPEMKQFFMRKYFESVRKKAPIQLDDETFHRICNSEIADEEIPLSFELNFFVKLRNGRVKLYLGPNVGSTRAGKTFGRFSHMSDSISEIIKTLHNKEKELTECNTKVCELSIVPNQTRSGNVTRNVSYREKEMSLFTNSALHLNDSVKAEDILIGINKDHNFYARHKTTGEILSFESNHMFNPLLMTNAVRFLLEISRDGKRKWNDFPWFSIYSDFKYIPEIKYKEITLSCEQWLIYKNDLSMHSNASLEEIKSPFFEFHRTYELPQTFYIVNADNRLLIDIENDCTLDVFFWELKKTNHNQPLQLVAVEHDADALMDRNQNDYSGEIVVPLLRKQPEKPLYLPVLNAIEGSGSDRIKMPFEDWLFIKLYCKQTREEELIAFEIADFYNQISDQYPVRHFFMRYRDPKPHIRLRFNGKAEVLYSLFPQLLNWLKSLREKGLVSESVITQYEREIERYGGLSLMEAAEQLFCEDSKVVEMMIRMHRMKDITISKEIAGMVSVIQFLEQFELTFEEQLTFLERNSLQNEYRTEFKKDREMYIEICNSDRDWDNLKKTSDGGMLYETLKTRKMAAAHYAFLIKKAFDNKDEVYSRIGSIIHLHCNRLFGTDRELENKILTLCRHSLYAQRYQKMNGSLAWK
With B1 the binding was “binds”.
